According to the supplement of paper PMC5949888:
Most values lie at the floor of the assay. Slopes are relative: functional sequences can read slightly below zero.

Test system: Saccharomyces cerevisiae PS128 hsf1 delta, HSF1(1-493) fusion
Assay: growth estimate (transactivation domain function in HSF1 fusion, heat-shock survival) (a.u. (slope of normalised read count over time)); higher = stronger growth at 37°C, i.e. more transactivation activity
Conditions: library: random library

| Substance | growth estimate |
| --- | --- |
| VRILHGTAHARVRQTLAECA | -0.163 |
| VRISEAPFAIGWPKIGRASL | < -0.25 |
| VRISLPLSRRCEQWSVNQKS | < -0.25 |
| VRLGMDRHSAHNGR | < -0.25 |
| VRLKARLWAYKEGQSIVGPA | < -0.25 |
| VRLPLRPSNMRVRRSETLVG | < -0.25 |
| VRLRG | < -0.25 |
| VRLRQSDVLRAHHSFDNGEK | < -0.25 |
| VRLVINLLGKN | < -0.25 |
| VRM | < -0.25 |
| VRMGSLIRSTMRLRAAT | < -0.25 |
| VRNFRGL | < -0.25 |
| VRNGSAGELVYISFRMALVT | < -0.25 |
| VRPKRIPGASLMSGTETSYR | < -0.25 |
| VRPLDGESPAGYGRYKPILF | < -0.25 |
| VRPRGGSVVEKVLNSLPLAE | < -0.25 |
| VRPRQSTGIRGCGRPSFSVL | < -0.25 |
| VRPRRIMPCKWTS | < -0.25 |
| VRQC | < -0.25 |
| VRQISAVIFLAVGHVVPASL | < -0.25 |
| VRQQMGKCLEPREILT | < -0.25 |
| VRRDELARNPKVSGSRWDMG | < -0.25 |
| VRRER | < -0.25 |
| VRRGLLCGSTMRWERSGV | < -0.25 |
| VRRQVRPIRNCREFHVR | < -0.25 |
| VRRV | < -0.25 |

| Substance | growth estimate |
| --- | --- |
| VRS | < -0.25 |
| VRSAATLGVVQRPV | < -0.25 |
| VRSFGRRLNWHGKDRLWIMQ | < -0.25 |
| VRSGFCCRNRLPGSRLHMWP | < -0.25 |
| VRTGISNGYLASGGTTHPFG | < -0.25 |
| VRTHGPI | < -0.25 |
| VRTLASCGQRVWSSRIRGRS | < -0.25 |
| VRTNLLNLLNGYKLDWIGRP | < -0.25 |
| VRTSQLSG | < -0.25 |
| VRTTLTRQCHSSVIAPRSFS | < -0.25 |
| VRTTVLIRNLTSPQNVARLR | < -0.25 |
| VRVDSLCALVNKPKRYGDTT | < -0.25 |
| VRVESWIRKLGRRRGFCCHR | < -0.25 |
| VRVRMTFRSF | < -0.25 |
| VRVYGGRREL | < -0.25 |
| VRWETRGRYKLSKGKFCAVA | < -0.25 |
| VRWSRARK | < -0.25 |
| VRYCNCRHPRKVHTPVER | < -0.25 |
| VSA | < -0.25 |
| VSADNTKVCVHCVSSGVLSI | < -0.25 |
| VSAGGVSSETA | < -0.25 |
| VSAGSPL | < -0.25 |
| VSCWPRGSQFRTRNSKAAMA | < -0.25 |
| VSD | < -0.25 |
| VSDAESFRDAGFPPYS | < -0.25 |
| VSDARRRD | < -0.25 |

Quoted at random: 2 entries already listed

| Substance | growth estimate |
| --- | --- |
| VRWETRGRYKLSKGKFCAVA | < -0.25 |
| VRSAATLGVVQRPV | < -0.25 |

Further results.

| Substance | growth estimate |
| --- | --- |
| VSDKFLILAMG | < -0.25 |
| VSDLLALKGCWLTLYTQSPT | < -0.25 |
| VSEA | < -0.25 |
| VSEHWAGIFSMAGKLVSPSR | < -0.25 |
| VSESEHQHPWSEIISPGRQL | < -0.25 |
| VSFER | < -0.25 |
| VSFKSVCASQVVLPWQQHRS | < -0.25 |
| VSFVSGLCGRVGTVC | < -0.25 |
| VSGAVPR | -0.235 |
| VSGEII | -0.245 |
| VSGGHALRDEVKCRCGRRLR | < -0.25 |
| VSGIRDRSRLK | < -0.25 |
| VSGLSNRAHQWRMWKYVLLG | < -0.25 |
| VSGLVWKAGCSRGDSRMLDV | < -0.25 |
| VSHCDTLALTHRSWRRICNE | < -0.25 |
| VSHLL | < -0.25 |
| VSHLRLITYDS | < -0.25 |
| VSHT | < -0.25 |
| VSHTRA | < -0.25 |
| VSIGVHS | < -0.25 |
| VSILADKFGERLCGVLPGIT | < -0.25 |
| VSILGDLNNLFCQLGQVAGP | < -0.25 |
| VSIQNGRAACIWVSYCRSRA | < -0.25 |
| VSIRNDGFS | < -0.25 |
| VSKD | < -0.25 |
| VSKERHGQQTDMRTPSG | -0.18 |

For convenience, part of the list above:

| Substance | growth estimate |
| --- | --- |
| VSGIRDRSRLK | < -0.25 |
| VSGLSNRAHQWRMWKYVLLG | < -0.25 |

Following part.

| Substance | growth estimate |
| --- | --- |
| VSKSPKLVLLREL | < -0.25 |
| VSLKLKDMTSSRLPVDREYS | < -0.25 |
| VSNLIHYDNSMSVGTTYIAL | < -0.25 |
| VSPCGR | < -0.25 |
| VSPGRALCQIALVELIPDNT | < -0.25 |
| VSPIETTLSE | < -0.25 |
| VSPLGLPRTTWGRVYG | < -0.25 |
| VSPMGRLGLRLVIAHVLRPR | < -0.25 |
| VSPSGSLKLTLYCPAKGTS | < -0.25 |
| VSPVISIGDNSRQNASVPLE | -0.241 |
| VSQNIPETTRRKQDS | < -0.25 |
| VSQVCECYGHIN | -0.25 |
| VSRAEGALMRILQDSN | < -0.25 |
| VSRFDRRYYFAGK | < -0.25 |
| VSRLKVSLSTYGE | -0.147 |
| VSRLLNA | < -0.25 |
| VSRQGS | < -0.25 |
| VSRWVPFPAQMTTIARDSIV | < -0.25 |
| VSSALHDSY | < -0.25 |
| VSSPVISLLLVGTLGKDRAR | < -0.25 |
| VSSSRSHSLKAQSVFF | < -0.25 |
| VSSTHAPASYHGLDGRRCRS | < -0.25 |
| VSSY | < -0.25 |
